Data reported in PMC5744018.
Results are given in words; binding and its absence hold for the method and conditions named. For some assays here: Binding seen in cells or lysates may run through a third protein. Some entries that bind do so weakly or less than the wild type. Tags and fused reporters may be left off the sequences shown. Blank lines part the entries; values can stand above or below the binder they belong to.

Assays:
[1] = target: T1, ANK6 (amino acid residues 21-174) fused to the GAL4 DNA-binding domain (Arabidopsis thaliana) (UniProt Q9FNP4); experiment: two-hybrid; directed test; AH109 cotransformed with pGADT7 (RPS9M CDS and truncated variants) and pGBKT7 (ANK6) constructs; growth on SD-LWHA, 30°C, 2-3 days
T1 sequence: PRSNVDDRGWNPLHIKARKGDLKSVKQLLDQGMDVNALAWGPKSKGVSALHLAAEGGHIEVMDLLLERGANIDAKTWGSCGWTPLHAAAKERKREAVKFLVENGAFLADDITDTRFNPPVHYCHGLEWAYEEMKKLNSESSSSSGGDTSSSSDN

[2] = target: T2, full-length ANK6 fused to N-terminal Venus (ANK6-Venus^N) (Arabidopsis thaliana) (UniProt Q9FNP4); experiment: split reporter; BiFC in mesophyll protoplasts of Arabidopsis rosette leaves; RPS9M-CFP^C with ANK6-Venus^N; MitoTracker to mark mitochondria
T2 sequence: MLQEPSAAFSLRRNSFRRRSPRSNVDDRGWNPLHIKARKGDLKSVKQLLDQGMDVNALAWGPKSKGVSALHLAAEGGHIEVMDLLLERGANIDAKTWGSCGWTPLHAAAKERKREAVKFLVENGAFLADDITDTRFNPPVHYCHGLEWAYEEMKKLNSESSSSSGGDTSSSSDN

- binding [1]: binds
B1: full-length RPS9M fused to the GAL4 activation domain (protein, UniProt Q8L6Z4 1-430)
chain: MLSRLFLRHSNLRFVTLVSSKSNSQIFSSFIRPLSTNSSGGGGNGDGNGRNRNDVPWSFTGVNDDKSGPFSSDDSFGSSGVAGSGLPGGEGKWPEEPKRWNIKEEEEKVVFDTGGEVGQGIETSRERRGNEWEETKRWDMKEGEEKVVFGGGGDEVDGFGIRGEVKSNEWDVSKPWNLKEEEEGVVFDTGGEVPFSFENSLEMAEEERVKKELIEKEEKELLEVIKGPDRAFGDLIAKSGITDEMLDSLIALKDFQGVEGLPPLTEIENLRREKSSKKSSRAEIELQMQEDIAKARVRQVDETGRAYGTGRRKCSIARVWIQPGEGKFQVNEKEFDVYFPMLDHRAALLRPLAETKTLGRWDIKCTVKGGGTTGQVGAIQLGISRALQNWEPDMRTSLRAAGFLTRDSRVVERKKPGKAKARKSFQWVKR

- binding [2]: binds
B2: full-length RPS9M fused to C-terminal CFP (RPS9M-CFP^C) (protein, UniProt Q8L6Z4 35-430)
chain: STNSSGGGGNGDGNGRNRNDVPWSFTGVNDDKSGPFSSDDSFGSSGVAGSGLPGGEGKWPEEPKRWNIKEEEEKVVFDTGGEVGQGIETSRERRGNEWEETKRWDMKEGEEKVVFGGGGDEVDGFGIRGEVKSNEWDVSKPWNLKEEEEGVVFDTGGEVPFSFENSLEMAEEERVKKELIEKEEKELLEVIKGPDRAFGDLIAKSGITDEMLDSLIALKDFQGVEGLPPLTEIENLRREKSSKKSSRAEIELQMQEDIAKARVRQVDETGRAYGTGRRKCSIARVWIQPGEGKFQVNEKEFDVYFPMLDHRAALLRPLAETKTLGRWDIKCTVKGGGTTGQVGAIQLGISRALQNWEPDMRTSLRAAGFLTRDSRVVERKKPGKAKARKSFQWVKR
